Results: patent US7582602B2, “Hirulog-like peptide and gene therapy” (priority 2000, dated 2009)
“And” between values parts separate entries of the source, which are not always exact repeats. Equal values may be shown once. “Also recorded” adds a separate entry of the source. Not every detail of the peptide structures is certain; ends, links or a residue may be inferred.

Columns and labels:
[1] = tested on: balloon catheter injured carotid artery; test: Balloon catheter injury-induced neointima formation in rat carotid artery (histology); format: in vivo, Sprague-Dawley rats; settings: for reduction of neointimal area versus saline-treated controls / neointima/media ratio and stenosis versus vehicle controls / neointimal area (except HLP3.2 group), neointima/media and stenosis versus heparin-treated rats: 2 weeks; for neointima/media ratio and stenosis versus vehicle controls / neointimal area (except HLP3.2 group), neointima/media and stenosis versus heparin-treated rats: 4 h i.v. infusion started 0.5 h before injury
[2] = tested on: balloon catheter-injured carotid arteries of atherosclerotic rabbits; test: Angioplasty-induced restenosis in carotid artery of atherosclerotic rabbits; format: in vivo, New Zealand rabbits
[3] = tested on: baboon aortic SMC; test: Thrombin-induced 3H-thymidine incorporation assay; format: cell-based
Method: Baboon aortic SMCs (seed cells provided by Dr. A. W. Clowes, University of Washington, Seattle) were grown as previously described (Ishiwata S et al, 1999) and seeded in 12-well plates to sub-confluence. Sub-confluent cells were incubated with serum-free medium for 48 hours. Quiescent SMCs were stimulated with medium containing 1% fetal calf serum and 10 U/ml of thrombin in the absence and presence of HLP for 4 hours. The incubation was continued following the replacement of fresh medium supplemented with 10% serum in the absence of thrombin or its inhibitor for 14 hours. Finally, SMCs were incubated with 0.1 μCi/ml of 3H-thymidine (NEN, Boston, Mass.) in medium containing 10% of serum for 6 hours. At the end of the incubation, the cells were thoroughly washed with PBS then 5% ice-cold trichloroacetic acid, and harvested in 0.25 N NaOH (Safian R D et al, 1990). Radioactivity in aliquots of cell lysate was analyzed in scintillation counter. 3H-Thymidine incorporation was assessed by radioactivity in cell lysates following adjustment with cellular proteins in each well.

[4] = tested on: PDGF; test: Immunohistochemistry of PDGF in neointima of injured rat carotid artery; format: in vivo, rats; settings: for abundance / expression of PDGF in neointima: infusion started before balloon injury; for Area of immunostain (% of total area), PDGF: neointima, mean±SD, n=4
[5] = tested on: α-actin; test: Immunohistochemistry of α-actin in neointima of injured rat carotid artery; format: in vivo, rats; settings: for abundance / expression of α-actin in neointima: infusion started before balloon injury; for Area of immunostain (% of total area), α-Actin: neointima, mean±SD, n=4
[6] = tested on: platelet deposition on intima of injured carotid artery; test: Platelet deposition on denuded intima (scanning electron microscopy); format: in vivo, Sprague-Dawley rats
[7] = tested on: SMC; test: Thrombin-induced SMC proliferation; format: cell-based; settings: unpublished observations
[8] = 4 h i.v. infusion from 0.5 h before injury: heparin 50 U/kg/h, hirulog-1 1 mg/kg/h, HLP 1.6 mg/kg/h
[9] = HLP 0.8 mg/kg/h for four hours, 4 weeks
[10] = HLP 0.8 mg/kg/h for four hours, mean±SD
[11] = heparin 50 U/kg/h, hirulog-1 1 mg/kg/h, HLP 1.6 mg/kg/h for 4 h from 0.5 h before injury
[12] = hirulog-1 1 mg/kg/hours i.v. for 4 hours x 6-times after injury, mean±SE

SMILES: CC[C@H](C)[C@H](NC(=O)[C@H](CCC(=O)O)NC(=O)[C@H](CCC(=O)O)NC(=O)[C@H](Cc1ccccc1)NC(=O)[C@H](CC(=O)O)NC(=O)CNC(=O)[C@H](CC(N)=O)NC(=O)CNC(=O)CNC(=O)CNC(=O)CNC(=O)[C@@H]1CCCN1C(=O)[C@H](CCCNC(=N)N)NC(=O)[C@@H]1CCCN1C(=O)[C@H](CC(=O)O)NC(=O)[C@H](CC(C)C)NC(=O)[C@@H](NC(=O)[C@H](C)NC(=O)[C@H](CC(N)=O)NC(=O)[C@@H](NC(=O)[C@H](C)NC(=O)[C@H](CCCCN)NC(=O)[C@H](CO)NC(=O)[C@H](CCC(=O)O)NC(=O)[C@@H]1CCCN1C(=O)[C@@H](N)Cc1ccccc1)[C@@H](C)O)[C@@H](C)O)C(=O)N1CCC[C@H]1C(=O)N[C@@H](CCC(=O)O)C(=O)N[C@@H](CCC(=O)O)C(=O)N[C@@H](Cc1ccc(O)cc1)C(=O)N[C@@H](CC(C)C)C(=O)N[C@@H](CCC(N)=O)C(=O)O [HLP]
- reduction of neointimal area versus saline-treated controls [1, 8]: 31%
- neointima/media ratio and stenosis versus vehicle controls [1]: significantly reduced
- neointimal area (except HLP3.2 group), neointima/media and stenosis versus heparin-treated rats [1]: significantly lower
- neointima/media ratio at 6 months after treatment ([1]; HLP 1.6 mg/kg/h for 4 hours from 0.5 hours before injury, 6 months): 0.90±0.07
- reduction of neointimal area versus saline-treated controls ([1]; HLP 3.2 mg/kg/h, 4 h i.v. infusion from 0.5 h before injury): 29%
- reduction of neointima formation versus vehicle controls ([1]; HLP infusion (1.6-3.2 mg/kg/hours) for 4 hours started 0.5 hours before injury): 36%
- preventive effect on neointima formation compared with hirulog-1 ([1]; equimolar amounts): comparable to equimolar amount of hirulog-1
- reduction of balloon catheter-induced increase in neointima/media ratio ([1]; intravenous infusions of HLP): 33%
- inhibition of balloon catheter injury-induced stenosis ([1]; multiple prolonged intravenous infusions of HLP): 30%-40%
- duration of the effect on neointima formation after treatment ([1]; rat carotid artery): 6 months
- reduction of neointima formation versus saline control ([2]; HLP 0.8 mg/kg/h for four hours from 0.5 hours before angioplasty, 4 weeks, n=7): 60%
- reduction of neointima/media versus saline control [2, 9]: 62%
- reduction of stenosis versus saline control [2, 9]: 38%
- neointima formation [2, 10]: 0.28±0.16
- neointima/media [2, 10]: 0.58±0.32
- stenosis [2, 10]: 0.42±0.19
- restenosis in rabbits ([2]; HLP 1.6 mg/kg/hours i.v. for 4 hours started 0.5 hours before angioplasty): moderately reduced
- angioplasty-induced restenosis in atherosclerotic rabbits (planned study of Example 3) ([2]; HLP infusion, study described as a design): substantially reduces
- thrombin-induced increase in 3H-thymidine incorporation (DNA synthesis) ([3]; 20 μM HLP with 10 U/ml thrombin): inhibited; also recorded: significantly reduced
- 3H-thymidine incorporation, HLP alone ([3]; HLP alone up to 20 μM): did not significantly alter
- abundance / expression of PDGF in neointima [4]: suppressed; also recorded: significantly reduced; also recorded: attenuated
- Area of immunostain (% of total area), PDGF ([4]; HLP 3.2 mg/kg/h): 34.65 ± 2.05*+ % of total area
- Area of immunostain (% of total area), PDGF [4, 11]: 34.04 ± 1.73*+ % of total area
- abundance / expression of α-actin in neointima [5]: did not significantly affect
- Area of immunostain (% of total area), α-Actin ([5]; HLP 3.2 mg/kg/h): 50.02 ± 1.28 % of total area
- Area of immunostain (% of total area), α-Actin [5, 11]: 51.23 ± 1.09 % of total area

SMILES: CC[C@H](C)[C@H](NC(=O)[C@H](CCC(=O)O)NC(=O)[C@H](CCC(=O)O)NC(=O)[C@H](Cc1ccccc1)NC(=O)[C@H](CC(=O)O)NC(=O)CNC(=O)[C@H](CC(N)=O)NC(=O)CNC(=O)CNC(=O)CNC(=O)CNC(=O)[C@@H]1CCCN1C(=O)[C@H](CCCNC(=N)N)NC(=O)[C@@H]1CCCN1C(=O)[C@H](N)Cc1ccccc1)C(=O)N1CCC[C@H]1C(=O)N[C@@H](CCC(=O)O)C(=O)N[C@@H](CCC(=O)O)C(=O)N[C@@H](Cc1ccc(O)cc1)C(=O)N[C@@H](CC(C)C)C(=O)O [Hirulog-1]
- reduction of neointimal area versus saline-treated controls [1, 8]: 31%
- neointima/media ratio and stenosis versus vehicle controls [1]: significantly reduced
- neointimal area (except HLP3.2 group), neointima/media and stenosis versus heparin-treated rats [1]: significantly lower
- neointima formation at 2 weeks after injury ([1]; bolus injection 1 mg/kg, venous or arterial route, immediately after injury): did not affect neointima formation
- neointimal area lower than in injured animals without treatment [1, 12]: 56.3±3.8%
- stenosis lower than in injured animals without treatment [1, 12]: 37.0±2.6%
- reduction of neointima/media ratio versus injured animals without treatment ([1]; hirulog-1 1 mg/kg/hours i.v. for 4 hours x 6-times, started immediately after injury, 2 weeks after injury, 1 mg/kg): 50.8±3.3% and 50% and 50.8%
- N/M, stenosis and neointimal area ([1]; once or twice infusions of hirulog-1 after injury): No significant change
- neointimal thickness ([1]; single i.v. infusion 1 mg/kg/hours for 4 hours immediately after injury): No significant reduction
- abundance of PDGF in neointima ([4]; hirulog-1 1 mg/kg/hours for 4 hours x 6, after injury, 1 mg/kg): obviously reduced; also recorded: attenuated
- abundance / expression of PDGF in neointima [4]: significantly reduced
- Area of immunostain (% of total area), PDGF [4, 11]: 37.23 ± 0.72*+ % of total area
- platelet deposition ([6]; 0.5 mg/kg for 15 minutes): Significant inhibition
- platelet deposition ([6]; 5 minutes after injection, versus untreated controls): Significant reduction; also recorded: Significant inhibition
- effect on platelet deposition ([6]; 30 minutes following treatment): attenuated
- inhibition of platelet deposition ([6]; 60 minutes after injection): No inhibition
- deposition of platelets on injured intima ([6]; bolus 1 mg/kg via carotid artery or penile vein, 15 minutes after injury): effectively inhibited
- dose beyond which the effect on platelet deposition reached a plateau ([6]; bolus injection): > 1 mg/kg
- thrombin-induced SMC proliferation [7]: inhibited
- abundance of α-actin in neointima ([5]; hirulog-1 1 mg/kg/hours for 4 hours x 6, after injury): did not apparently change
- abundance / expression of α-actin in neointima [5]: did not significantly affect
- Area of immunostain (% of total area), α-Actin [5, 11]: 50.40 ± 1.63 % of total area
